From patent publication US20180048011A1, “HIGH pH ORGANIC FLOW BATTERY” (President and Fellows of Harvard College, priority 2015, published 2018)

Tests used:
[1] = Full flow cell test, quinone negolyte vs. ferrocyanide posolyte; settings: negative electrolyte 1.2 g in 10 mL 2 M KOH
Procedure: Cell testing was performed at 20° C. using solutions of 0.5 M 2,6-DHAQ in 2 M KOH, and 0.4 M K4Fe(CN)6 in 1 M KOH. These solutions were pumped through a flow cell constructed from graphite flow plates and carbon paper electrodes, which were separated by a Nafion membrane (FIGS. 12a and 12 b). A charging current of 0.1 A cm^−2 was applied to charge the cell, and polarization curves were measured at 10%, 50%, and 100% states of charge (SOC). The polarization curves (FIG. 13b) show peak galvanic power densities beyond 0.45 W cm^-2.
The cell was cycled at a constant current density of ±0.1 A cm^-2 for 100 cycles (FIG. 14a). […] A 0.1% loss in capacity per cycle was observed during cycling, which appears to be a continuous loss of electro-active species over the 100 cycles (FIG. 14b). We explored three possible loss mechanisms: chemical decomposition, electrolyte crossover through the membrane, and leakage from the pumping system. […] This observation places an upper limit on crossover of 0.8% of the DHAQ, implying a crossover current density of <2.5 μA cm^-2 (FIGS. 16a and 16b). […] A source of leakage was readily apparent but not quantifiable at the exit of the humidified nitrogen bubbling through the negolyte to prevent energy loss by permeation of atmospheric oxygen. Coloration could also be found on the gaskets, indicating a likely site of electrolyte leakage (FIGS. 17a and 17b). […]

[2] = FMN-ferrocyanide flow cell test; settings: for peak power density: room temperature
Procedure: The positive electrolyte was prepared by dissolving potassium ferrocyanide trihydrate (1.9 g) and potassium ferricyanide (0.15 g) in 1 M KOH solution (11.25 mL) to afford a 0.4 M ferrocyanide +40 mM ferricyanide electrolyte solution. The negative electrolyte was prepared by dissolving riboflavin 5′ phosphate sodium salt (0.72 g) in 2 M KOH solution (3 mL) resulting a 0.5 M electrolyte solution.
The negative electrolyte was prepared at a fully oxidized state. The positive electrolyte contained 9% oxidized species.
(§1) Hardware from Fuel Cell Tech. (NM, Albuquerque) was used to assemble a zero-gap flow cell configuration, similar to previous reports (Aaron, D. S. et al. Journal of Power Sources 206, 450-453 (2012)), and shown schematically in FIG. 4. Serpentine flow pattern flow plates were used for both sides. A 5 cm^2 geometric surface area electrode comprised a stack of three pieces of SGL Sigracet GDL 10AA porous carbon, and a piece of Nafion 212 membrane served as the ion-selective membrane. The rest of the space between the plates was gasketed by Kalrez sheets. The electrolytes were fed into the cell through PFA tubing, at a rate of 60 mL/min controlled by Cole-Parmer Micropump peristaltic pumps.
Before and during the test, the electrolytes were purged with UHP nitrogen to remove and then keep out atmospheric oxygen. […] Galvanostatic cycling shown in
The positive electrolyte was prepared by dissolving potassium ferrocyanide trihydrate (3.2 g), sodium ferrocyanide decahydrate (3.6 g) and potassium ferricyanide (0.5 g) in 0.5 M KOH +0.5 M NaOH solution (15 mL) to afford a 1 M ferrocyanide +0.1 M ferricyanide electrolyte solution. The negative electrolyte was prepared by dissolving riboflavin 5′ phosphate sodium salt (2.4 g) in 4 M KOH solution (5 mL) resulting a 1 M electrolyte solution. The negative electrolyte was prepared in a fully oxidized state. The positive electrolyte contained 9% oxidized species.
as §1, with “Teflon” for “Kalrez”, “gear” for “peristaltic”
Before and during the test, the electrolytes were purged with UHP nitrogen to remove and then keep out atmospheric oxygen.

Compound	open circuit voltage at 50% state of charge [1] [volts]	battery voltage (open-circuit potential) at 50% state of charge ([2]; 0.5 M FMN, 0.4 M ferrocyanide)	peak power density ([2]; 0.5 M FMN, 0.4 M ferrocyanide)	battery voltage (open-circuit potential) at 50% state of charge ([2]; 1 M FMN, 1 M ferrocyanide)	peak power density ([2]; 1 M FMN, 1 M ferrocyanide)
Cc1c(O)ccc2c1C(=O)c1ccc(O)c(C)c1C2=O [1,5-DMAQ, 1,5-dimethyl-2,6-dihydroxy-9,10-anthraquinone]	1.34	–	–	–	–
Cc1cc2nc3c(=O)[nH]c(=O)nc-3n(C[C@@H](O)[C@@H](O)[C@@H](O)COP(=O)(O)O)c2cc1C [FMN, riboflavin 5′ phosphate]	–	above 1 V	above 0.2 W cm^-2	above 1 V	above 0.4 W cm^-2
